16 targets from the supplement of paper PMC12067093, “Discovery and optimisation of a covalent ligand for TRIM25 and its application to targeted protein ubiquitination” (Chemical Science, 2025) can be followed below.

The chains behind the UniProt entries cited, without tags or fusion partners. Where a name states a change or a piece, a line headed by the entry shows the natural chain unless it says otherwise.
UniProt Q15029: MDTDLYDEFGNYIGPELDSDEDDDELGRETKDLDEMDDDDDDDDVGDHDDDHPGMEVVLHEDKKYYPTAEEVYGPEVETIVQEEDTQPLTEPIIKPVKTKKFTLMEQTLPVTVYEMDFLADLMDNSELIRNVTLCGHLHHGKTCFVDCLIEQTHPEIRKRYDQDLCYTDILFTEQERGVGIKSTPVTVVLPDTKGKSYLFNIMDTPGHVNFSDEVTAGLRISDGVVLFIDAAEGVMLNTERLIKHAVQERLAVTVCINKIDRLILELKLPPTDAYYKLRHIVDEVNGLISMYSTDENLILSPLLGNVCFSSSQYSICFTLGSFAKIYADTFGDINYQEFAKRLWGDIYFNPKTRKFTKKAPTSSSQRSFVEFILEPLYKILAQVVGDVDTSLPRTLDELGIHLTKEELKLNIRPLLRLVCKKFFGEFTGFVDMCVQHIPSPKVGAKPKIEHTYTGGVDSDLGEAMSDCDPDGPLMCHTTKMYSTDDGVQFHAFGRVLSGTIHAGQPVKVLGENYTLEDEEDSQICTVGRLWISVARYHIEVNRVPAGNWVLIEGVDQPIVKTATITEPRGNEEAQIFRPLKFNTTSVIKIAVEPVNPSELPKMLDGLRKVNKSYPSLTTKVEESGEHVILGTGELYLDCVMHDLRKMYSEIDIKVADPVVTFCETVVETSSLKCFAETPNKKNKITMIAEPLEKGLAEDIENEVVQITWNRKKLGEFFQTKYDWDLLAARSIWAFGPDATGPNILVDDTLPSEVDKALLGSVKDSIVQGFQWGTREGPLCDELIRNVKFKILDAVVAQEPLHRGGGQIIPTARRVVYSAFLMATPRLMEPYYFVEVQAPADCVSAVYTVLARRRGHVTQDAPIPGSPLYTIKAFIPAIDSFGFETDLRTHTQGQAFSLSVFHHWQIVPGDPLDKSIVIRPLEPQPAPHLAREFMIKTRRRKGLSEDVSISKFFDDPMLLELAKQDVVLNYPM
UniProt Q5VYK3, whole entry, looked up: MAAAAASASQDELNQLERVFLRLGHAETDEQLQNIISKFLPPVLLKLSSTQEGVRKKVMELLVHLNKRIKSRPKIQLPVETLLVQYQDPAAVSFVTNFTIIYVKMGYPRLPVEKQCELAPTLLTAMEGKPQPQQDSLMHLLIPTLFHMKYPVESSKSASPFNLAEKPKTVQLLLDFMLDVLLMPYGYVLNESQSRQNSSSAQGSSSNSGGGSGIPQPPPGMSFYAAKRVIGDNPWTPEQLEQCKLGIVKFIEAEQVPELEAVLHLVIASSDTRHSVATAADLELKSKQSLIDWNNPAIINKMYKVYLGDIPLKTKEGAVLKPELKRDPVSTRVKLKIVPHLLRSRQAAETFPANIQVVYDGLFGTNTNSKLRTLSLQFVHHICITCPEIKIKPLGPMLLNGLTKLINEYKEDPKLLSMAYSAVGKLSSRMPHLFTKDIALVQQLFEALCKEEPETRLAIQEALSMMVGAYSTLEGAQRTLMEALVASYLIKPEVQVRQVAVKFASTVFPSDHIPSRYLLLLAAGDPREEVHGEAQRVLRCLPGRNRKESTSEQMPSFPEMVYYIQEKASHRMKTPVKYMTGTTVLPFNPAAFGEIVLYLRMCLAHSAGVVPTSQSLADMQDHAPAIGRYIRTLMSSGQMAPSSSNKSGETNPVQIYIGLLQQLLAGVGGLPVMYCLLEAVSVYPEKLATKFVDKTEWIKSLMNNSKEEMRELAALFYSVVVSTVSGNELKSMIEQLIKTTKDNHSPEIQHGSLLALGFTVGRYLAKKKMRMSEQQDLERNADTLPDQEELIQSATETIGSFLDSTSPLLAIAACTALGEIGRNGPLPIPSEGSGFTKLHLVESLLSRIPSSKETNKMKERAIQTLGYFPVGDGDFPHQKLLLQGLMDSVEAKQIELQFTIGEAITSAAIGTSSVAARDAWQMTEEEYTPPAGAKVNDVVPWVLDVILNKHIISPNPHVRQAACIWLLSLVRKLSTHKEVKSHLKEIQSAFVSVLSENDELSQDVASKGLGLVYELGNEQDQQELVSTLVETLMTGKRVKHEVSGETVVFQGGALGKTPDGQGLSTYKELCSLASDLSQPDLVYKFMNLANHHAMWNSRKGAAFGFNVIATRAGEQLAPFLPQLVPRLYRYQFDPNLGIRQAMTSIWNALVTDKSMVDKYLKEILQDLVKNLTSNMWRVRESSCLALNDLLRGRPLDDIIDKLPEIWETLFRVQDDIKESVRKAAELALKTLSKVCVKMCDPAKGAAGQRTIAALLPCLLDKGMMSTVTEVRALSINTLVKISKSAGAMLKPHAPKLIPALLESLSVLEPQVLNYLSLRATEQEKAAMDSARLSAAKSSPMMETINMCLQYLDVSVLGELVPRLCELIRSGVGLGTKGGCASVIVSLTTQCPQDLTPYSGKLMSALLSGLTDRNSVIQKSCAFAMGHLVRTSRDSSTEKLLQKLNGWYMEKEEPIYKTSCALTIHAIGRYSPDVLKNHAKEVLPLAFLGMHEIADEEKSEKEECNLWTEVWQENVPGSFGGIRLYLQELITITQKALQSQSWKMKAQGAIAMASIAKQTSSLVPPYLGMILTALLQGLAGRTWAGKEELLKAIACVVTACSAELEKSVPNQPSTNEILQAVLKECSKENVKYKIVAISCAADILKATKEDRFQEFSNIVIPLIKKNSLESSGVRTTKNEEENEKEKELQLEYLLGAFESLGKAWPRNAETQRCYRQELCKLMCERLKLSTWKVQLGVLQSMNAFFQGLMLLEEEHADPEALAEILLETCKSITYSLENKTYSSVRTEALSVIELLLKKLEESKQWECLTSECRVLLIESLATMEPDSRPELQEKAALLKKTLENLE
UniProt Q9BV94: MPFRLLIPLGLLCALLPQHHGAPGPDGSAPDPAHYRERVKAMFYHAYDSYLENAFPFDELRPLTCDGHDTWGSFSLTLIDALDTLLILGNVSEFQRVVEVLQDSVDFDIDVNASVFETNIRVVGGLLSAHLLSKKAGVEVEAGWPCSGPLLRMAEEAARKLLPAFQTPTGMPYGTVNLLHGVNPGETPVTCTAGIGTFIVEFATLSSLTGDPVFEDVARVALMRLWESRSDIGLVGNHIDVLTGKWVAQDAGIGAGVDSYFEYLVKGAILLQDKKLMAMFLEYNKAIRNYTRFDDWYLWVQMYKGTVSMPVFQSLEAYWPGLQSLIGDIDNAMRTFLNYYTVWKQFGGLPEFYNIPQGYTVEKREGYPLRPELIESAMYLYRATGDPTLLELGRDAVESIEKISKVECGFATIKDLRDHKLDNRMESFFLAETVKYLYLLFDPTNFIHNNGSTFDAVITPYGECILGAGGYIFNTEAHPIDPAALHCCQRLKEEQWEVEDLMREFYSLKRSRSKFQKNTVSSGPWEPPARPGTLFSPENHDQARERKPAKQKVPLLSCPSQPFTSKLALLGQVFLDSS
UniProt Q6P2E9: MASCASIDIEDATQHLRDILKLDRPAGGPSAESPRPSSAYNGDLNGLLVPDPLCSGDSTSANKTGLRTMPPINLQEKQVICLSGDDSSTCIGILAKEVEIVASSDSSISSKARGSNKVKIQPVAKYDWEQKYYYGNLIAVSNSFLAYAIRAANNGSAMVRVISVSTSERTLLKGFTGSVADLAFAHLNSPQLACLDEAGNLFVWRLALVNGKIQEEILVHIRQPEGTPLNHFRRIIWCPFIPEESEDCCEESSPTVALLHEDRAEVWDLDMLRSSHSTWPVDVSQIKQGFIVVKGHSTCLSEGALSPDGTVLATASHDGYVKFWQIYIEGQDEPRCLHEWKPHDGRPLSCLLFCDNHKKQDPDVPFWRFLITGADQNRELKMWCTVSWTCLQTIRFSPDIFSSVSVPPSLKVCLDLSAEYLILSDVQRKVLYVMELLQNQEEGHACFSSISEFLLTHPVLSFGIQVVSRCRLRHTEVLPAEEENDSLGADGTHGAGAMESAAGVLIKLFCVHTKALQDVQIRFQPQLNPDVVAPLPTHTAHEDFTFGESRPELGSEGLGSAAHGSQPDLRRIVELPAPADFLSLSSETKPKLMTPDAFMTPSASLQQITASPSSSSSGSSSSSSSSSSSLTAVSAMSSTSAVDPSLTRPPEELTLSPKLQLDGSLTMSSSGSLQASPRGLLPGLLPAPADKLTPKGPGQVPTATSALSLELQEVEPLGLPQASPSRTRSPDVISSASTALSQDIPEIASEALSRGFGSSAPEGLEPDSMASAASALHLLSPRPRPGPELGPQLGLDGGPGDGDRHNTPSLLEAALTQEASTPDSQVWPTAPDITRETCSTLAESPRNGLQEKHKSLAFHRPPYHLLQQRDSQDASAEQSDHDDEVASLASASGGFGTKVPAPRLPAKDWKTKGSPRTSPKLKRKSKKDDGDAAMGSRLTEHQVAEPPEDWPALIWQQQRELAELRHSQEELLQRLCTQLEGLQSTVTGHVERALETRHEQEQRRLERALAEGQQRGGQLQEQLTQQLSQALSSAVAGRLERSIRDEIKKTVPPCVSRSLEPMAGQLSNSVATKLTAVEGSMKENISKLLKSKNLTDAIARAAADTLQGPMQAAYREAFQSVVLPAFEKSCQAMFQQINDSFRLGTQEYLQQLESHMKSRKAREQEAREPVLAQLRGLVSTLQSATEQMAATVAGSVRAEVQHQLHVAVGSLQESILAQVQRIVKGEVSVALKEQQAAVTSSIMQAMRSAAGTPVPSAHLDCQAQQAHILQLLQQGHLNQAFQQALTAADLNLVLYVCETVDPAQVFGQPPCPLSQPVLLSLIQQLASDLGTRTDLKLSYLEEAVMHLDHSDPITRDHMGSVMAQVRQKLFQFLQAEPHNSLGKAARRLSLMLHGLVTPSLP
UniProt P19525: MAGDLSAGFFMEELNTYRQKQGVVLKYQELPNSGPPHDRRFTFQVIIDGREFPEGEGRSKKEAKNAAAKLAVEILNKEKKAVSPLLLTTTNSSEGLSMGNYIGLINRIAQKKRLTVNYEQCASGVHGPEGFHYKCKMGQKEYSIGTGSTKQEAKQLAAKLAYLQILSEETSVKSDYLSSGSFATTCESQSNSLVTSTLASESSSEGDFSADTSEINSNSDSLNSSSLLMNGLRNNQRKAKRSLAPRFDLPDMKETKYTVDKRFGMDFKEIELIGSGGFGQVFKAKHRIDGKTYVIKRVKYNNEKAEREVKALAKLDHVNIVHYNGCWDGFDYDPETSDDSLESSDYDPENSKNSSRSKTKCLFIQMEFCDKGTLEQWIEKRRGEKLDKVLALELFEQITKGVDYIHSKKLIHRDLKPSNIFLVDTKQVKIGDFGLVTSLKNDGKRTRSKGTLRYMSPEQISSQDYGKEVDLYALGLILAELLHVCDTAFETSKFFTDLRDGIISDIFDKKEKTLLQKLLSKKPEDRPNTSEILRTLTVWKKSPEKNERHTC
UniProt Q12805: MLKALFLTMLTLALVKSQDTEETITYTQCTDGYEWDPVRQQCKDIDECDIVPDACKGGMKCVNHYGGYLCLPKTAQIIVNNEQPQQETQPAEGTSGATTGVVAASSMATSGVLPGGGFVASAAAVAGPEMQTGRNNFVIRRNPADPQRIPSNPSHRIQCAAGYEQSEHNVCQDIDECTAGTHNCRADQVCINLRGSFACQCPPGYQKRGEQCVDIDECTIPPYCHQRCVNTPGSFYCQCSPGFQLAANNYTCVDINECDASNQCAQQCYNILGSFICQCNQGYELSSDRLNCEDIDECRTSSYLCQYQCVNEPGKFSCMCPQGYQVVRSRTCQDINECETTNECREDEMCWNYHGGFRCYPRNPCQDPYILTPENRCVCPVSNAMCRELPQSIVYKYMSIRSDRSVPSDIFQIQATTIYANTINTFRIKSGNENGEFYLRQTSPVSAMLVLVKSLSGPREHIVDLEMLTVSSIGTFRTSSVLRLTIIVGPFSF
UniProt Q92611: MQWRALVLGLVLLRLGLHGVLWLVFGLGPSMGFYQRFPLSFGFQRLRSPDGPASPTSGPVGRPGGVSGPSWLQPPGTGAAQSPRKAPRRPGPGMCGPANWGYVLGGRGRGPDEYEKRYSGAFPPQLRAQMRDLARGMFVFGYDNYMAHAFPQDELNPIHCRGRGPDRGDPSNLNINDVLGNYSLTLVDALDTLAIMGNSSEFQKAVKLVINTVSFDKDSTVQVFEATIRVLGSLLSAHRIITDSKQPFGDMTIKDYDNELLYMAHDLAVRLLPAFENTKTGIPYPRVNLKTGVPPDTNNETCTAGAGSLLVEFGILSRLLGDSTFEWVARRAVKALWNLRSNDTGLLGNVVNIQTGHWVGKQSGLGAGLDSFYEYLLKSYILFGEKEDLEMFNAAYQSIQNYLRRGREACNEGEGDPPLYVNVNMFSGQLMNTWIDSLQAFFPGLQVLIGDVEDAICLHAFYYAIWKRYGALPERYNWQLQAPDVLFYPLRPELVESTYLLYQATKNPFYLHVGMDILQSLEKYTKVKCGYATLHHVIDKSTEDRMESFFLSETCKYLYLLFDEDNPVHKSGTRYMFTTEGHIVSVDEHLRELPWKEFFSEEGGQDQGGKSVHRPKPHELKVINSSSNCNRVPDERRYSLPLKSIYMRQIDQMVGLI

Compound in this assay: Cc1cc(ccc1-c1ccccc1)C(=O)N1CCCN(CC1)C(=O)CCl [compound 10]
Briefly: probe-labelled cysteine peptide fold change vs DMSO (competition) (log2 fold change); higher = less target engagement (more negative = stronger competition). Conditions: THP-1, incubation time: 4 h.

Some of the results follow.
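Note: competitive profiling in live THP-1 cells: cysteine peptides tagged with an iodoacetamide desthiobiotin (IA-DTB) probe, intensity after compound treatment relative to DMSO-treated cells.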

Turning to “EIF2S2_P20042_226_TSFVNFTDICK (UniProt P20042)”, the “probe-labelled cysteine peptide fold change” value runs as follows: (10 µM) -0.0131; (50 µM) -0.0563.
With “EFTUD2_Q15029_674_CFAETPNK (UniProt Q15029)”, the “probe-labelled cysteine peptide fold change” value is -0.163 (10 µM) and 0.406 (50 µM).
Taken in the same sequence, the figures for “EIF3A_Q14152_198_LCDNLR (UniProt Q14152)” were 0.0881 and 0.284.
Taken in the same sequence, the figures for “ECPAS_Q5VYK3_1638_IVAISCAADILK (UniProt Q5VYK3)” were 0.257 and 0.122.
In the case of “EDEM2_Q9BV94_408_VECGFATIK (UniProt Q9BV94)”, the “probe-labelled cysteine peptide fold change” value is, setting by setting: (10 µM) -0.169; (50 µM) -0.0204.
Taken in the same sequence, the figures for “EHMT1_Q9H9B1_1203_FINHHCEPNLVPVR (UniProt Q9H9B1)” were 0.0729 and 0.084.
Taken in the same sequence, the figures for “EDC4_Q6P2E9_510_LFCVHTK (UniProt Q6P2E9)” were 0.155 and 0.106.
As for “EEF2_P13639_536_SDPMVQCIIEESGEHIIAGAGELHLEICLK (UniProt P13639)”, the “probe-labelled cysteine peptide fold change” value runs as follows: (10 µM) 0.0647; (50 µM) -0.00294.
For the target “EEF2_P13639_536+557_SDPMVQCIIEESGEHIIAGAGELHLEICLK (UniProt P13639)”, the “probe-labelled cysteine peptide fold change” value is, setting by setting: (10 µM) -0.0519; (50 µM) -0.0734.
Taken in the same sequence, the figures for “EIF2AK2_P19525_369_CLFIQMEFCDK (UniProt P19525)” were 0.0225 and 0.0844.
Taken in the same sequence, the figures for “EIF2AK2_P19525_121_LTVNYEQCASGVHGPEGFHYK (UniProt P19525)” were 0.0266 and 0.0963.
Taken in the same sequence, the figures for “EFEMP1_Q12805_377_CVCPVSNAMCR (UniProt Q12805)” were -0.364 and -0.416.
“EGLN1_Q9GZT9_208_HGICVVDDFLGK (UniProt Q9GZT9)”: the “probe-labelled cysteine peptide fold change” value was -0.21 (10 µM) and -0.244 (50 µM).
Turning to “EEF2_P13639_41_STLTDSLVCK (UniProt P13639)”, the “probe-labelled cysteine peptide fold change” value runs as follows: (10 µM) -0.117; (50 µM) -0.198.
Taken in the same sequence, the figures for “EIF2AK4_Q9P2K8_46_QDHELQALEAIYGADFQDLRPDACGPVK (UniProt Q9P2K8)” were -0.361 and 0.173.
Taken in the same sequence, the figures for “EDEM1_Q92611_629_VINSSSNCNR (UniProt Q92611)” were -0.171 and 0.236.
